# The campaign covered roughly 320,000 compounds. About 620 (0.19%) were called active. The inconclusive results got no clear call from the source; some entries with a clear call stand among them for comparison. No stated cut-off is given here; in the data, active means activation above about 80%; inconclusive means between about 30% and that limit; inactive means weaker than that.
# By UniProt entry, the sequences of proteins in these tests, tags left out.
# UniProt Q8NER1, whole entry, looked up: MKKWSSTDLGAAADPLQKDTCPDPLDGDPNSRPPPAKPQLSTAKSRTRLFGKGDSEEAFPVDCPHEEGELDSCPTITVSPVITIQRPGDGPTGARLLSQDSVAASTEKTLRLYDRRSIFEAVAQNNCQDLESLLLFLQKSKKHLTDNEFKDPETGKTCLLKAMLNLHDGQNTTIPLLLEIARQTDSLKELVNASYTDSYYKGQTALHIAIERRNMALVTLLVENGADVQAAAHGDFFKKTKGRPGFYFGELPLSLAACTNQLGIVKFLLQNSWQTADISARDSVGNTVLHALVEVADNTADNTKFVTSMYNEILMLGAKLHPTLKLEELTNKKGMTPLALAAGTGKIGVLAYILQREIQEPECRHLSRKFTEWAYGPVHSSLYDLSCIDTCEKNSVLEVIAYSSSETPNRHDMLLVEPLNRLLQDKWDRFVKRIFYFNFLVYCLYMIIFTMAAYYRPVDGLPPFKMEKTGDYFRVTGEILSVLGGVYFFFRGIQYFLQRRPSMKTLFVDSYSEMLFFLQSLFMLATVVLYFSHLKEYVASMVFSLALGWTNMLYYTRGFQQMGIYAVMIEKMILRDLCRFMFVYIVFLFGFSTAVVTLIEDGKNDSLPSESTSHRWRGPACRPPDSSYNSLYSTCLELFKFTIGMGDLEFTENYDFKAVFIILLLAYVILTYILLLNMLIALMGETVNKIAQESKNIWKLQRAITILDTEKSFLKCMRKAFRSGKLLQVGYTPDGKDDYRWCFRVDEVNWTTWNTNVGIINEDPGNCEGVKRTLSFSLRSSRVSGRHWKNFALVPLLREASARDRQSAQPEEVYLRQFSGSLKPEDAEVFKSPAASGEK
# Target: Transient receptor potential cation channel subfamily V member 1 (Homo sapiens) (UniProt Q8NER1)
# Assay: HTS Assay for Compounds that Act as Agonists of the Vanilloid Receptor 1; further: 0% is about no effect
# Conditions: TRPV1-expressing cells, Fluo-8 calcium influx, agonist mode; at 8.33 µM, active compounds read high
# In short: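 Fluo-8 calcium influx in TRPV1-expressing cells, kinetic read (ex 480/em 520 nm). Compound added and read 3 min for agonist activity, followed by capsaicin at EC20 final and 2 min further read for enhancement.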
row,SMILES,activation
1,C=CCn1c(O)c(N=Nc2nc3ccccc3c(=O)n2-c2ccccc2)c2ccccc21,inactive: 0.217%
2,COc1ccc2nc(SCC(=O)NC3CCCc4ccccc43)[nH]c2c1 (stereo not given),inconclusive: 45%
3,COc1ccc(CC(=O)OCC(=O)NCCc2ccccc2)cc1OC,inconclusive: 56.9%
4,Cc1onc(-c2ccccc2)c1C(=O)OCCOc1ccccc1F,inconclusive: 33.9%
5,C=CCn1c(N)c(C(=O)OC(C)CC)c2nc3ccccc3nc21 (stereo not given),inconclusive: 37.7%
6,Cc1ccc(C(=O)N/C(=C\c2ccccc2)C(=O)OCc2ccccc2)cc1,inconclusive: 34.4%
7,CCOP(=O)(OCC)c1nc(-c2cccc([N+](=O)[O-])c2)oc1N1CCCCC1,inconclusive: 77.6%
8,CCN(CC)c1ccc(/C=N/NC(=O)c2ccccn2)cc1,inconclusive: 63.9%
9,Cc1ccccc1C(=O)Nc1c2c(nc3ccccc13)CCCC2,inconclusive: 36.2%
10,Cc1ccc(-n2c(SCC(=O)Nc3cccc(S(N)(=O)=O)c3)nc3ccccc32)cc1,inconclusive: 46.1%
11,CCOC(=O)/C(C(=O)Nc1ccccc1Br)=C1/NC(C)(C)Cc2ccccc21,inactive: 12.4%
12,O=C(CCCSc1nc(-c2ccco2)cc(C(F)(F)F)n1)NCC1CCCO1 (stereo not given),inconclusive: 32.4%
13,CC1CCN(C(=O)CN2C(=O)NC3(CCCCCC3)C2=O)CC1,inactive: 2.03%
14,O=C(NCCc1ccc(O)cc1)c1ccc(Cl)cc1,inconclusive: 65.5%
15,O=C(CCc1ccccc1)N1CCN(Cc2ccc(F)cc2Cl)CC1,inconclusive: 37.3%
16,Cc1cccc(NC(=O)Cc2nc(-c3c[nH]c(C(=O)N4CCCC4)c3)cs2)c1,inactive: 0.538%
17,CNc1c(NC(=O)C2CCC(C)CC2)c(=O)oc2ccccc12 (stereo not given),inactive: 6%
18,O=C(N/N=C/c1ccccc1Cl)c1ccc(F)cc1,inconclusive: 39.2%
19,O=S(=O)(c1ccc(Oc2ccccc2)cc1)N1CCOCC1,inconclusive: 39.1%
20,O=C(Cn1nnc(-c2ccccc2)n1)Nc1cccc(S(=O)(=O)N2CCCC2)c1,inactive: 6.11%

row,SMILES,activation
1,O=C(CSCc1ccccc1)Nc1ccc(S(=O)(=O)N2CCOCC2)cc1,inconclusive: 30%
2,CC(Oc1ccccc1)C(=O)N1CCN=C1SCc1ccc(F)cc1 (stereo not given),inconclusive: 30.2%
3,Cc1ccc(NC(=O)c2ccco2)cc1C,inconclusive: 59%
4,CC1CCN(S(=O)(=O)c2ccc(NC(=O)Cc3cccs3)cc2)CC1,inconclusive: 30.9%
5,CCOC(=O)C1CCN(C(=O)c2cc3cc(Br)ccc3oc2=O)CC1,inactive: -0.839%
6,O=C(Nc1cccc([N+](=O)[O-])c1)Nc1cccs1,inconclusive: 35.6%
7,CCOC(=O)c1sc2nc(C)nc(Nc3ccccc3)c2c1C,inactive: 12%
8,COc1ccc(Cc2noc(CN(C)Cc3cccc(-n4cccn4)c3)n2)cc1OC,inconclusive: 50.4%
9,Cc1c(C(=O)Nc2ccccn2)oc2c(Cl)cccc12,inconclusive: 35.7%
10,O=C(Nc1ccccc1C(F)(F)F)N1CCN(c2ccccn2)CC1,inactive: 1.47%
11,COC(=O)c1ccc(NC(=O)C(=O)c2cccn2C)cc1,inconclusive: 48.3%
12,CC(C)(C)NC(=O)C(=O)NCCC1=CCCCC1,inconclusive: 43.7%
13,O=C(COC(=O)Cc1ccc(Br)cc1)NCc1ccc(F)cc1,inconclusive: 64.8%
14,CC(C)(CCO)NC(=S)NC1CC2C=CC1C2 (stereo not given),inconclusive: 40%
15,CC1CCN(C(=O)c2ccc(CSc3ccc(Cl)cc3)cc2)CC1,inconclusive: 39.1%
16,NS(=O)(=O)c1cccc(NC(=O)COC(=O)C2(c3cccc(F)c3)CCCC2)c1,inconclusive: 71.7%
17,CCOC(=O)C1=C(C)N=C2SC(C)C(=O)N2C1c1ccccc1 (stereo not given),inactive: 3.85%
18,Cc1cc2nc(C)c3c(n2n1)CCC3,inactive: -3.03%
19,O=C(OCCN1C(=O)c2cccc3c(N4CCOCC4)ccc(c23)C1=O)c1ccccc1Cl,inconclusive: 45.5%
20,CN(C)c1cc(N/N=C/c2ccc(Cl)cc2)nc(N(C)C)n1,inconclusive: 30.1%

row,SMILES,activation
1,O=C(Nc1ccc(-c2csc(-c3ccccc3)n2)cc1)c1ccccc1,inconclusive: 39.4%
2,O=C(OCC(=O)N1CCCc2ccccc21)c1cnc(Cl)c(Cl)c1,inactive: -0.205%
3,CC1CCN(c2ccc3c(c2)S(=O)(=O)c2cccc(C(=O)NCc4cccc(F)c4)c2C3=O)CC1,inconclusive: 30.4%
4,COc1ccc(Oc2coc3cc(OC(=O)/C=C/c4ccccc4)ccc3c2=O)cc1,inactive: 3.57%
5,COC(=O)c1ccc(Sc2ccc(C)cc2)c(N)c1,inactive: 1.31%
6,O=C(c1cccc(F)c1)N1CCN(c2cccc(Cl)c2)CC1,inactive: 23.2%
7,Cn1c(CSc2ccccc2)c(C#N)c2ccccc21,inconclusive: 36.2%
8,O=C(CN1CCC(n2nnc3cc(F)ccc32)CC1)NC1CCCCC1,inactive: 0.703%
9,COc1ccc(S(=O)(=O)Nc2ccc(-n3cccc3)cc2)cc1,inactive: 4.55%
10,Cc1cc(NC(=O)C(C)SCC(=O)N(C)CC(=O)Nc2ccc(Br)cc2C)no1 (stereo not given),inconclusive: 75.8%
11,O=C(NCc1ccc(F)cc1)C1CC(=O)N(C2CCCCCCC2)C1 (stereo not given),inconclusive: 30.2%
12,COc1cc(/C(C)=N\NC(N)=S)cc(OC)c1OC,inactive: -1.3%
13,Cc1cc(C(=O)Nc2ccc(Br)cn2)sc1C,active: 83.1%
14,O=C(NCc1ccncc1)Nc1ccc(Cl)cc1Cl,inconclusive: 63.7%
15,O=C(Nc1ccccc1)c1ccc2c(c1)OCO2,inconclusive: 56.6%
16,COc1ccc(C(=O)N/N=C/c2c(CO)cnc(C)c2O)cc1,inactive: 3.77%
17,Cc1ccc(C(=O)C(c2ccccc2)N2Cc3ccccc3C2=N)cc1 (stereo not given),inconclusive: 72%
18,Cc1cc(C)cc(C(=O)/C=C2\NC(=O)CS2)c1,inactive: -1.76%
19,COc1ccc(C2CC(c3c(-c4ccccc4)c4cc(Cl)ccc4[nH]c3=O)=NN2S(C)(=O)=O)cc1 (stereo not given),inactive: 9.49%
20,O=C(Nc1ccc2c(c1)OCO2)C1CC(=O)N(c2cccc(Cl)c2)C1 (stereo not given),inconclusive: 63%

# Two compounds picked at random from the list so far:
row,SMILES,activation
11,COC(=O)c1ccc(NC(=O)C(=O)c2cccn2C)cc1,inconclusive: 48.3%
12,O=C(CCCSc1nc(-c2ccco2)cc(C(F)(F)F)n1)NCC1CCCO1 (stereo not given),inconclusive: 32.4%

# Reference: PubChem BioAssay AID540275 (National Center for Advancing Translational Sciences (NCATS), 2011)
